# Test results from PubChem BioAssay AID2417 (National Center for Advancing Translational Sciences (NCATS), 2010).
# The campaign covered roughly 140,000 compounds. About 4,300 (3.1%) were called active. The shares of active, inactive and inconclusive entries below differ from those in the screen.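 Rule for the calls: active = readout at or below -70, meaning at least 70% loss of cells showing the perinucleolar compartment, a nuclear body marking cancer cells; inconclusive = readout between -30 and a set limit; inactive = the rest.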
# Experiment: High Content Assay for Compounds that inhibit the Assembly of the Perinucleolar Compartment;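 note: plate controls were DMSO wells for no effect and camptothecin positive control wells for full effect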
# Details: PC3M PTB-GFP, PNC prevalence imaging, 16 h; at 10 µM; active compounds read low
# Procedure, shortened: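 PC3M cells stably expressing PTB-GFP, 750–1000 cells/well, treated 16 h at 37 °C with compound (23 nl of library stock), in duplicate. After paraformaldehyde fixation and Hoechst stain, imaged at 20x; PNC prevalence scored by image analysis.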
row,SMILES,"activity change (PNC), negative = inhibition"
1,O=C(c1cn(CC(=O)N2CCCC2)c2ccccc12)C1CCCCC1,inactive: 18.5%
2,COCCn1c(SCC(=O)N2CC(=O)Nc3ccccc32)nc2ccccc21,inconclusive: -36.6%
3,COc1ccc(F)cc1S(=O)(=O)N1CCN(Cc2ccc3c(c2)OCO3)CC1,inconclusive: -45.9%
4,Cc1ccc(C(=O)CSc2nc(N)cc(=O)[nH]2)cc1,inconclusive: -77.2%
5,COc1ccc(CNC2CCCc3ccccc32)cc1OC (stereo not given),inconclusive: -31.9%
6,CC1CN(CCc2ccccc2)c2nc3c(c(=O)[nH]c(=O)n3C)n2C1 (stereo not given),inactive: 28.3%
7,O=C(NCc1ccco1)NC1CCCCC1,inconclusive: -33.5%
8,CCOC(=O)C1=C(c2ccccc2)NC(=S)NC1C (stereo not given),inconclusive: -45.3%
9,O=C(CSc1nc2ccccc2c(=O)n1CC1CCCO1)NCC1CCCO1 (stereo not given),inconclusive: -30.1%
10,O=C(NCCc1ccccc1F)C1CCCN1S(=O)(=O)c1ccc2ccccc2c1 (stereo not given),inactive: -9.92%
11,CCCCn1nnnc1SCC(=O)Nc1ccc(C)cc1,inconclusive: -33.6%
12,CC(=O)Nc1ccc(S(=O)(=O)NCC(=O)OCC(=O)N2CCCc3ccccc32)cc1,active: -99.5%
13,COc1ccc2c(C)cc(SCC(=O)NCCN3C(=O)CSC3=O)nc2c1,inconclusive: -51.8%
14,Nc1c(-c2ccccc2)c(CSc2nc3ccccc3[nH]2)nn1-c1ccc(C(=O)O)cc1,inconclusive: -54.6%
15,O=C(CC(SCCO)c1ccc2c(c1)OCO2)c1cccs1 (stereo not given),active: -112%
16,C=CCn1c(SCC(=O)O)nnc1-c1cccs1,inactive: 13.8%
17,CCOC(=O)c1c(C)nc2sc3c(=O)n(-c4ccc(C)cc4)cnc3c2c1-c1ccc(OC)cc1,inconclusive: -60.6%
18,COc1cc(C)nc(Oc2ccc(OCCOc3ccc(C)cc3)nn2)n1,inconclusive: -35%
19,COc1ccc(/C=N/N2C(=O)CSC2=S)cc1,inactive: 4.36%
20,O=C(Nc1cccc(F)c1)C1CCN(C(=O)c2ccccc2Cl)CC1,inconclusive: -40.6%

row,SMILES,"activity change (PNC), negative = inhibition"
1,CCOC(=O)c1c(NC(=O)CNCCOC)sc2c1CCCC2,inactive: 256%
2,Nc1nc(-c2ccc(Br)cc2)c(S(=O)(=O)c2ccccc2)s1,inconclusive: -75.8%
3,CC(=O)Nc1c(C(=O)C2CC2)oc2ccccc12,inconclusive: -68.3%
4,Cc1ccc(O)c(-c2cc(C(F)(F)F)[nH]n2)c1,inactive: 10.2%
5,CCCNC(=O)COc1nc2ccccc2nc1N1CCOCC1,inactive: 9.13%
6,CC1CCN(c2nc(/C=C/c3ccccc3)nc3ccccc23)CC1,inconclusive: -54.2%
7,CCn1cc([N+](=O)[O-])c(C(=O)Nc2ccn(Cc3ccccc3F)n2)n1,inconclusive: -37.8%
8,N#Cc1c(NCCCO)nc(NCc2ccccc2)c2c1CCN(Cc1ccccc1)C2,inconclusive: -48.2%
9,COCCn1nnnc1C(c1ccc(C(F)(F)F)cc1)N1CCOCC1 (stereo not given),inconclusive: -39.4%
10,CCOC(=O)c1sc2nc(C)cc(-c3ccccc3)c2c1N,inconclusive: -60.2%
11,CCOC(=O)C(NS(=O)(=O)c1ccccc1)(C(F)(F)F)P(=O)(OC(C)C)OC(C)C (stereo not given),inconclusive: -34.9%
12,COc1ccc(CC(=O)Nc2nnc(SCc3ccccc3)s2)cc1S(=O)(=O)N1CCOCC1,inactive: 14.7%
13,C(=C\c1ccco1)/C=N/n1cnnc1,inconclusive: -61.7%
14,CCOC(=O)C1CCN(C(=O)c2cc3cc4cc(OC)ccc4nc3o2)CC1,inactive: 4.33%
15,N=c1c(C(=O)NCc2ccco2)cc2c(=O)n3ccccc3nc2n1Cc1ccccc1,inconclusive: -66.1%
16,Cc1cc(=O)[nH]c(SCC(=O)N2CCCc3ccccc32)n1,active: -100%
17,CCn1c(=Nc2ccc(N3CCOCC3)cc2)ccc2ccccc21,inconclusive: -57.9%
18,O=C(NCN1CCCCC1)c1cnccn1,inconclusive: -55.4%
19,CCOc1cc(N(CC)CC)ccc1/C=C(/C#N)c1nc2ccccc2[nH]1,inconclusive: -46.6%
20,C=C(C)c1cccc(C(C)(C)NC(=O)Nc2ccc3[nH]c(=O)[nH]c3c2)c1,inconclusive: -40%

row,SMILES,"activity change (PNC), negative = inhibition"
1,O=C(COc1ccc(-c2nnco2)cc1)NCc1ccccc1Cl,inconclusive: -54.3%
2,CCN1C(=O)/C(=C2/SC(C)=C(C)N2CC)SC1=S,inconclusive: -34.9%
3,CCOc1ccc(Br)cc1S(=O)(=O)Nc1ccc(Cl)c(S(=O)(=O)N(C)C)c1,inactive: 43.8%
4,COCCCNC(=O)/C=C/c1cccc(Cl)c1,inactive: 2.53%
5,O=c1cc(CO)oc(C(Nc2ccccn2)c2ccsc2)c1O (stereo not given),inactive: -25.8%
6,Cc1ccc(N)c2c1OCCC2=O,active: -118%
7,COC(=O)C(C)N(c1ccc(C)cc1)S(=O)(=O)c1c(C)[nH]c(=O)[nH]c1=O (stereo not given),inconclusive: -64.7%
8,Cc1ccc(N=Nc2c(N)nn3c(C)cc(C)nc23)cc1,inconclusive: -31.3%
9,CC1=C(C(=O)Nc2cccnc2)C(c2ccc(C(C)C)cc2)n2ncnc2N1 (stereo not given),inactive: 56.9%
10,CC(C)c1ccc(OCC(=O)Nc2ccc(OC(F)(F)F)cc2)cc1,inconclusive: -44.5%
11,Cc1ccc(OCC(=O)N/N=C/C=C/c2ccco2)cc1,inactive: 9.33%
12,CCN=C1SC(CC(=O)Nc2ccccc2)C(=O)N1CC (stereo not given),inconclusive: -47.4%
13,O=C(O)CN1C(=O)SC(Nc2ccccc2)C1=O (stereo not given),inactive: 6.85%
14,O=C(Nc1ccccc1)N1CCN(Cc2ccccc2)CC1,inactive: 47.3%
15,CC1CCCN(C(=O)CSCC(=O)Nc2nc(-c3cccs3)cs2)C1 (stereo not given),inconclusive: -56%
16,CCOC(=O)Cc1nnc(NC(=O)C(CC)Sc2nc(C)cc(C)n2)s1 (stereo not given),inconclusive: -55.5%
17,Cc1ccc(S(=O)(=O)N(CC(O)CN2C(=O)NC(C)(C)C2=O)c2ccccc2)cc1 (stereo not given),inactive: 37.8%
18,Cc1ccc(SCCC(=O)NC(C(C)C)C(C)C)cc1,inconclusive: -42.8%
19,O=C(NC(=S)Nc1cccc(CO)c1)c1ccc(-c2ccccc2)cc1,inconclusive: -39.2%
20,Cc1cc(NC(=O)c2ccccc2Cl)no1,inactive: 16.6%

# 4 entries already listed, arranged by molecular weight, high to low:
row,SMILES,"activity change (PNC), negative = inhibition"
10,CC(C)c1ccc(OCC(=O)Nc2ccc(OC(F)(F)F)cc2)cc1,inconclusive: -44.5%
2,CCN1C(=O)/C(=C2/SC(C)=C(C)N2CC)SC1=S,inconclusive: -34.9%
13,O=C(O)CN1C(=O)SC(Nc2ccccc2)C1=O (stereo not given),inactive: 6.85%
4,COCCCNC(=O)/C=C/c1cccc(Cl)c1,inactive: 2.53%
